According to PMC8641933:
No constants are given. Whether binding was seen depends on the method and setting. In cells and extracts the contact can be indirect. Some entries that bind do so weakly or less than the wild type. Tags and fused reporters may be left off the sequences shown.

Biological target: wild-type FOXN1 (human), FLAG- or myc-tagged (human) (UniProt O15353)
Experiment: co-IP; Lysates of cotransfected 4D6 cells incubated with anti-FLAG or anti-Myc antibodies and protein G or A magnetic beads, 2 hours at 4°C. Western blot for the other tag. With or without coexpressed unlabeled Δ550 FOXN1.

binding: binds
B1: wild-type FOXN1 (human), FLAG- or myc-tagged (protein, UniProt O15353 1-648)
chain: MVSLPPPQSDVTLPGPTRLEGERQGDLMQAPGLPGSPAPQSKHAGFSCSSFVSDGPPERTPSLPPHSPRIASPGPEQVQGHCPAGPGPGPFRLSPSDKYPGFGFEEAAASSPGRFLKGSHAPFHPYKRPFHEDVFPEAETTLALKGHSFKTPGPLEAFEEIPVDVAEAEAFLPGFSAEAWCNGLPYPSQEHGPQVLGSEVKVKPPVLESGAGMFCYQPPLQHMYCSSQPPFHQYSPGGGSYPIPYLGSSHYQYQRMAPQASTDGHQPLFPKPIYSYSILIFMALKNSKTGSLPVSEIYNFMTEHFPYFKTAPDGWKNSVRHNLSLNKCFEKVENKSGSSSRKGCLWALNPAKIDKMQEELQKWKRKDPIAVRKSMAKPEELDSLIGDKREKLGSPLLGCPPPGLSGSGPIRPLAPPAGLSPPLHSLHPAPGPIPGKNPLQDLLMGHTPSCYGQTYLHLSPGLAPPGPPQPLFPQPDGHLELRAQPGTPQDSPLPAHTPPSHSAKLLAEPSPARTMHDTLLPDGDLGTDLDAINPSLTDFDFQGNLWEQLKDDSLALDPLVLVTSSPTSSSMPPPQPPPHCFPPGPCLTETGSGAGDLAAPGSGGSGALGDLHLTTLYSAFMELEPTPPTAPAGPSVYLSPSSKPVALA
